## Percent effect of library compounds

By UniProt entry, the sequences of proteins in these tests, tags left out. Residues count along the entry.
UniProt I6X8D2, whole entry: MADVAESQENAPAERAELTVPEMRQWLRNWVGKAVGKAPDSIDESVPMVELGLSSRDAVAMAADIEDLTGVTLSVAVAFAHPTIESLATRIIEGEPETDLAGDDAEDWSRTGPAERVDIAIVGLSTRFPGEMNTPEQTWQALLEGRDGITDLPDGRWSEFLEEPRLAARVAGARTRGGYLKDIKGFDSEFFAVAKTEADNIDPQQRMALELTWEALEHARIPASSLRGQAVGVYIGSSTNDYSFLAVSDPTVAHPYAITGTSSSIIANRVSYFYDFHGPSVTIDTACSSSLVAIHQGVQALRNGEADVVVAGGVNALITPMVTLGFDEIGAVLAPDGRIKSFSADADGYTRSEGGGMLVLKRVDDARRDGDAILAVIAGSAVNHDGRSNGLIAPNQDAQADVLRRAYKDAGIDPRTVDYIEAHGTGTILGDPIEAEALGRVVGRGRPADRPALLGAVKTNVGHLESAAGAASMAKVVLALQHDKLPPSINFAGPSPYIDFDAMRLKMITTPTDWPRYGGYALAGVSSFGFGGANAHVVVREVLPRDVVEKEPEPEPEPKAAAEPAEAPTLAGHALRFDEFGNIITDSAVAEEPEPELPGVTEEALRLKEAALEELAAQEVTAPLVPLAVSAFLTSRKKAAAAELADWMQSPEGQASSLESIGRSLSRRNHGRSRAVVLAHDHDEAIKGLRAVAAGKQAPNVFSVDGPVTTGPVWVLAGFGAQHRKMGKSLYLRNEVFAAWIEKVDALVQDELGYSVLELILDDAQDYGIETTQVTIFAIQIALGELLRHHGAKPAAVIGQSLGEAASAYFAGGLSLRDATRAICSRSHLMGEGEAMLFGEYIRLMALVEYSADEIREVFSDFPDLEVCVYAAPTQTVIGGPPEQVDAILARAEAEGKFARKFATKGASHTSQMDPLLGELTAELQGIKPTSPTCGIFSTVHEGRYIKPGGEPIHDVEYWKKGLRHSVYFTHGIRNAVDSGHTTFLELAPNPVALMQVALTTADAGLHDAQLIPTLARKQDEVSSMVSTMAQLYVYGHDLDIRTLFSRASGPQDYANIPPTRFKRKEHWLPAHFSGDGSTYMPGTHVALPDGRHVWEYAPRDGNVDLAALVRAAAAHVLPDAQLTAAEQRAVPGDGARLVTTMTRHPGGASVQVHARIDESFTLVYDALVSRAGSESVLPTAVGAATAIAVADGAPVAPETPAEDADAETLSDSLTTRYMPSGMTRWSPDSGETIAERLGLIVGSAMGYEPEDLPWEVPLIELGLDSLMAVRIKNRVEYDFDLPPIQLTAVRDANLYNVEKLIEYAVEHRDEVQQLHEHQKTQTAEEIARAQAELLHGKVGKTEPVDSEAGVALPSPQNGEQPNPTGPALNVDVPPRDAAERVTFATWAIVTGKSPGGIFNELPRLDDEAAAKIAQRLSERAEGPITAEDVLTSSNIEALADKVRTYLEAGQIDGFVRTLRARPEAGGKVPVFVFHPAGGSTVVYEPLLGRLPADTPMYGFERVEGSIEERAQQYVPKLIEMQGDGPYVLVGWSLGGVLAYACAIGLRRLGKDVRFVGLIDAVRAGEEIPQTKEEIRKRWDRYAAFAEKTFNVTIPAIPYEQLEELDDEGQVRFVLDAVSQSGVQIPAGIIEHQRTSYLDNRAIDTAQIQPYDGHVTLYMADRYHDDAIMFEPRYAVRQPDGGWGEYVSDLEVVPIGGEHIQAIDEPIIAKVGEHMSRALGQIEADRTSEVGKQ
UniProt Q4DA54, 1-478: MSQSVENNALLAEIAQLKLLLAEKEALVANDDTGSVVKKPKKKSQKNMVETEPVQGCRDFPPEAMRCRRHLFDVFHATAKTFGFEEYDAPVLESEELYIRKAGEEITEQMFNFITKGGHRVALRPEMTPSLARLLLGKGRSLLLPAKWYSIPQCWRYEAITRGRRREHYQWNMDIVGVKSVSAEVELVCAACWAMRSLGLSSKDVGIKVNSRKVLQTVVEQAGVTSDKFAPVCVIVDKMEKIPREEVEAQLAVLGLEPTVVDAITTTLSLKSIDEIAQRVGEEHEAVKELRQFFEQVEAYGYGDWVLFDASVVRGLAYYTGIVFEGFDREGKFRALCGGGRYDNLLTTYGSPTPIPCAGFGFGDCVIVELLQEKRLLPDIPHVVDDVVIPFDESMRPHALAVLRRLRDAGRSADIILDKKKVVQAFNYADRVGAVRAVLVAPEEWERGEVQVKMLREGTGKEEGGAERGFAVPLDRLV
UniProt P9WFT3, whole entry: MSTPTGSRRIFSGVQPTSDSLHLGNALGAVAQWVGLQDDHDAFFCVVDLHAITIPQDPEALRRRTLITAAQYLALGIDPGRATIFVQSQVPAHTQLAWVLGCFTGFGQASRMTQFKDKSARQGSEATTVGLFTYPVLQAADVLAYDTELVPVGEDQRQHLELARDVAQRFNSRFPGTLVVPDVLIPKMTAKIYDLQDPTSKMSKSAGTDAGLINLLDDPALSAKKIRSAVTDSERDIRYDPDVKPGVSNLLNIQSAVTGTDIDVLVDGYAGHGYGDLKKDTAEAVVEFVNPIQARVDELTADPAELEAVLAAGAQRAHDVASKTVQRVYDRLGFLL
UniProt P9WPC5, whole entry: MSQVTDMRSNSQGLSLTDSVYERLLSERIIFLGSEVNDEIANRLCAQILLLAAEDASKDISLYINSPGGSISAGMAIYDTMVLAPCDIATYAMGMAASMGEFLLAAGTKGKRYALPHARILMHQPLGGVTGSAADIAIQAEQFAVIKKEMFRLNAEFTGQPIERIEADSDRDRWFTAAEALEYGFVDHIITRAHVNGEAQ
UniProt P9WPC3, whole entry partner: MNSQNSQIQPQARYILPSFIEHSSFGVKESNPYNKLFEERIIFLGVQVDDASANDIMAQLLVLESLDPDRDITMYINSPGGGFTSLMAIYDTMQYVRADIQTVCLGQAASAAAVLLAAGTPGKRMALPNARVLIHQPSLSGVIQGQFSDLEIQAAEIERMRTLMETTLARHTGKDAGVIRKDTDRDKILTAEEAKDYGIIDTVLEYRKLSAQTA

From ChEMBL document CHEMBL3988442, “University of Dundee, Small-Polar-MMV Screening Library” (2021).

The filed quantity is “Percent Effect” (%).
The controls that fix the scale are not given in the record; negative values are as filed.
Compounds were drawn at random from those tested, without regard to their results.
A dash means the value is not listed here; it may have been measured.

A: 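Polyketide synthase Pks13, Mycobacterium tuberculosis (UniProt I6X8D2). Enzyme assay of the thioesterase domain of polyketide synthase 13; the read-out is not stated. Concentration: 30 µM. The record gives no direction; the compounds picked for IC50 retests had high values, so higher reads as stronger inhibition. Of about 67,000 compounds tested this way, about 300 (0.46%) reached 50% or more in at least one test.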
B: 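Enzyme assay of histidyl-tRNA synthetase; the read-out is not stated. Target: Histidine-tRNA ligase, Trypanosoma cruzi CL Brener (UniProt Q4DA54). Concentration: 30 µM. The record gives no direction; compounds that gave an IC50 in retests scored well above the rest, so higher reads as stronger inhibition. Of about 69,000 compounds tested this way, about 31 (0.045%) reached 50% or more in at least one test.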
C: 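Tryptophan-tRNA ligase, Mycobacterium tuberculosis (UniProt P9WFT3). Enzyme assay of tryptophanyl-tRNA synthetase; the read-out is not stated. Compounds at 10 µM. Higher most likely means stronger inhibition; the record gives no direction and few retests gave an IC50. About 65,000 compounds were tested under these conditions; 0.098% (about 64) showed 50% or more at least once.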
D: 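Protease assay of ClpP1P2, read by the AMC dye that it sets free. Target: ClpP1P2, Mycobacterium tuberculosis (UniProt P9WPC5 and UniProt P9WPC3). Tested at 50 µM. Higher reads as stronger inhibition, judged from the few compounds that gave an IC50. Most other retested compounds had strongly negative values. Of about 69,000 compounds tested this way, about 10 (0.015%) reached 50% or more in at least one test.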

| # | SMILES | A | B | C | D |
|---|---|---|---|---|---|
| 1 | `CCOc1ccccc1C(CC(=O)Nc1ncc(C)s1)NC(C)=O` (stereo not given) | -26.14% | 2.367% | 19.52% | -28.47% |
| 2 | `CN(C)C(=O)c1ccc2c(c1)nc(N1CC[C@H](O)C1)n2C` | -17.06% | -11.61% | -1.088% | 8.561% |
| 3 | `Fc1ccc(CN2CCCC3(CCN(Cc4ncc[nH]4)C3)C2)cc1F` (stereo not given) | -12.64% | 4.348% | -3.027% | -2.478% |
| 4 | `Cc1cnn(CCNCc2csc(C)n2)c1` | -3.808% | 3.734% | -2.487% | -18.26% |
| 5 | `COc1ccccc1C1(O)CCCN(C(=O)c2cnc(SC)nc2)C1` (stereo not given) | 10.56% | 3.846% | -4.959% | -6.319% |
| 6 | `CSC(C)C(=O)N1CCN(CC(C)(C)O)CC1` (stereo not given) | -19.53% | 0% | 2.23% | 4.389% |
| 7 | `c1cc(-c2ccc3c(c2)CCC32CCN(c3nncs3)CC2)co1` | 4.715% | 34.21% | 5.105% | 2.002% |
| 8 | `CCC(CNC(=O)NC1CCN(C)CC1)Oc1ccccc1Cl` (stereo not given) | -18.24% | 3.226% | 6.545% | -0.6649% |
| 9 | `CN(Cc1cn2c(n1)CN(C(=O)CC1CC1)CC2)Cc1ccco1` | -32.74% | 4.918% | 0.7048% | 5.429% |
| 10 | `CCCC(=O)N1Cc2ccccc2CC2(CCN(C)C2)C1` (stereo not given) | -41.29% | 12.43% | 13.74% | -11.92% |
| 11 | `CN(Cc1ccc2nsnc2c1)CC1(O)CNCCOC1` (stereo not given) | -1.676% | 7.937% | -3.072% | 3.701% |
| 12 | `O=C(CCCn1nnc(-c2ccc(F)cc2)n1)N1CCOCC(CO)C1` (stereo not given) | 19.49% | 6.579% | 8.256% | -2.498% |
| 13 | `COc1cccc(OCC2CCCN(C(=O)c3ncoc3C3CC3)C2)c1` (stereo not given) | -15.96% | -23.53% | -2.558% | -12.48% |
| 14 | `COC1COC2(CCN(C(=O)c3ccc4ccccc4c3)CC2)C1` (stereo not given) | -5.956% | 2.21% | - | -7.024% |
| 15 | `CCC(CO)NC(=O)Nc1ccc(OCC(F)(F)F)c(C)c1` (stereo not given) | -7.637% | 3.804% | -7.253% | -8.641% |
| 16 | `Cc1ccc2nc(C)cc(C(=O)NCc3csc(N(C)C)n3)c2c1` | -7.166% | 8.901% | -2.918% | -8.569% |
| 17 | `COCCOc1cccc(C(=O)N2CCCC(n3cccn3)C2)c1` (stereo not given) | 12.8% | -1.901% | -0.2201% | 1.811% |
| 18 | `CN(CCCc1cnn(C)c1)c1nccc(-c2cc(C(=O)O)ccn2)n1` | -11.55% | 5.473% | -3.446% | 6.345% |
| 19 | `CS(=O)(=O)NCCCN1CCCC1Cc1ccccc1` (stereo not given) | -36.53% | 0% | -2.124% | -0.6166% |
| 20 | `CCN(Cc1cnn(C)c1)C[C@H]1CC[C@@H](Cc2cccc(CN)c2)O1` | -7.024% | 2.762% | 3.406% | -10.02% |
| 21 | `CC(C)[C@H]1CN(Cc2ccccn2)C[C@@H]1NC(=O)CCS(C)(=O)=O` | -4.754% | 0.8696% | -1.497% | -5.381% |
| 22 | `CSc1ccccc1NC(=O)CCC(=O)N(C)C1CCN(C)CC1` | -28.31% | 1.087% | -4.844% | -2.286% |
| 23 | `CC(=O)Nc1nccn1Cc1ccccc1Cl` | -19.05% | 3.867% | -2.98% | -15.64% |
| 24 | `Cc1ccc(C(=O)NCc2cc(F)ccc2N2CCCN(C)CC2)o1` | -11.96% | 4.348% | 0.3564% | -6.387% |
| 25 | `CN(Cc1cccc(OC(F)(F)F)c1)C(=O)c1ccncc1F` | -20.36% | 0.5618% | -4.19% | -5.51% |
| 26 | `O=C1C(Sc2nnnn2C2CC2)CCN1c1ccccc1Cl` (stereo not given) | -11.51% | 9.392% | -5.676% | 3.336% |
| 27 | `Cc1ncsc1C(=O)N1CCCCC1c1cc2nc(C)c(C)c(O)n2n1` (stereo not given) | -5.817% | 4.887% | -5.699% | -9.97% |
| 28 | `CN(C)C(=O)CN1CCn2cc(Cn3cccn3)nc2C1` | 6.337% | 2.439% | 0.8299% | -3.394% |
| 29 | `O=C(NC1CC(F)(F)C1)[C@]12COC[C@H]1CN(Cc1ccccc1)C2` | -40.06% | 9.278% | -3.025% | 0.2066% |
| 30 | `CC(C)Oc1cccc(C(=O)C2CCCN(C(=O)c3ncn[nH]3)C2)c1` (stereo not given) | -210.4% | 5.833% | -4.412% | -4.318% |
| 31 | `CC(C)(CO)NC(=O)C1CCC(=O)N(Cc2ccc(Cl)cc2)C1` (stereo not given) | -3.013% | -0.813% | -9.289% | 4.995% |
| 32 | `O=C(NCCn1nc(-n2cncn2)ccc1=O)c1ccsc1` | -1.672% | -6% | -7.4% | -14.43% |
| 33 | `CC(CNC(=O)Nc1cn[nH]c1)N1CCc2ccccc2C1` (stereo not given) | -17.77% | 2.642% | -1.486% | 11.08% |
| 34 | `CNc1nc(C2CCCN2C(C)=O)nc2c1CN(CCO)CC2` (stereo not given) | 17.7% | 8.791% | - | -7.545% |
| 35 | `CC(=O)NCCNC(=O)CN1CCCC(Cn2cncn2)C1` (stereo not given) | -19.44% | 6.215% | 2.801% | -22.49% |
| 36 | `O=C(c1ccccc1)N1C[C@@H]2CCCO[C@@H]2[C@H](N2CCCC2)C1` | -34.43% | 7.527% | -6.836% | 4.366% |
| 37 | `CCOC1CCN(C(=O)c2ccc(-c3cccc(C)c3)[nH]c2=O)CC1` | -0.269% | 9.845% | 1.699% | 4.654% |
| 38 | `Cc1cc(C(=O)N2CCC(c3nccn3CCCN(C)C)CC2)no1` | - | 0.8264% | -3.92% | 7.775% |
| 39 | `CC(=O)N(Cc1noc(C2CC2)n1)C1CCN(Cc2nccn2C)C1` (stereo not given) | -20.53% | -1.149% | -1.846% | 16.67% |
| 40 | `CC(=O)Nc1nc(COc2nc(C)no2)cs1` | 2.527% | 4.459% | 11.4% | -3.372% |
| 41 | `CC(C)N1[C@H](Cn2cncn2)C[C@@H]2CN(c3ncccn3)CC[C@@H]21` | -29.41% | 5.747% | 0.7319% | 1.314% |
| 42 | `O=C1N(Cc2ccccc2)C[C@H]2CN(Cc3ccccc3Cl)CCN12` | 1.06% | 5.941% | 0.3765% | -28.85% |
| 43 | `Cc1cn2cc(-c3nc4c([nH]3)CCCNC4=O)nc2s1` | -13.84% | -0.8% | -3.601% | 8.429% |
| 44 | `CNC(=O)NCC(=O)N1CCCC1Cc1cccc(F)c1` (stereo not given) | -4.425% | 5% | -0.3799% | -2.697% |
| 45 | `CNS(=O)(=O)c1cccc(CNC(=O)c2cc(C)no2)c1` | -31.64% | 3.704% | 21.41% | 7.049% |
| 46 | `Cc1ccc(-c2ccnc(N(C)CC3CCCN3C)n2)c(C)n1` (stereo not given) | -0.177% | 8.081% | 0.2581% | 18.13% |
| 47 | `Cc1cccc(CN2CC3(CCN(Cc4ccco4)CC3)OCC2=O)n1` | -3.423% | -0.9346% | 1.18% | -10.6% |
| 48 | `CN(Cc1noc2c1CCCC2)C(=O)Cn1cnc2ccccc2c1=O` | -27.31% | 2.299% | -8.318% | 0.9559% |
| 49 | `O=C(c1ccccn1)N1C[C@@H]2CC[C@H](C1)N(C(=O)CCc1ccsc1)C2` | -9.352% | 3.347% | -0.08285% | 0.7766% |
| 50 | `COc1cccc(-c2nc(CNCCc3cccnc3)cs2)c1` | -1.68% | 9.524% | -3.366% | -5.104% |
| 51 | `CCOCC1CN(C(=O)c2ccco2)Cc2cnn(CC)c21` (stereo not given) | -7.56% | 9.244% | -0.07639% | 3.005% |
| 52 | `Cc1nccn1C1CCCN(C(=O)CCNc2ncccn2)C1` (stereo not given) | -14.38% | 1.127% | -3.323% | 14.15% |
| 53 | `COCCOCC(=O)N1C[C@@H]2CC[C@H](Oc3ccccc3F)[C@@H]2C1` | -10.27% | 8.955% | 13.74% | 6.826% |
| 54 | `O=C(NCC1CCN(CCc2ccccc2)C1)c1c(F)cccc1F` (stereo not given) | 1.488% | 4.082% | 17.5% | -6.933% |
| 55 | `CN1CCCCC12Cc1ccccc1CN(C(=O)c1ccccc1)C2` (stereo not given) | -396% | 17.16% | -3.717% | -14.06% |
| 56 | `Cc1cc(NCCSc2nccn2C)n2ncnc2n1` | -15.77% | 6.061% | -2.452% | -2.715% |
| 57 | `Cc1noc(C)c1-c1nc(C2CCCN(CCC(N)=O)C2)ccc1CO` (stereo not given) | 0.3714% | 4.857% | -8.548% | -17.03% |
| 58 | `CCc1noc(C(C)N(C)CC(=O)Nc2ccc(C)cc2)n1` (stereo not given) | -2.434% | 4.132% | -1.497% | -7.427% |
| 59 | `CCN1CCN(c2ncnc3c2CCN(C(=O)C2CC2)C3)CC1` | 1.944% | 13.1% | 2.381% | -8.579% |
| 60 | `CNC(=O)C(C)(C)NC(=O)c1cc(COc2cccc(C(C)=O)c2)[nH]n1` | -29.84% | 7.407% | -0.1282% | -0.6702% |
| 61 | `Cn1nc(C(=O)NCc2cccnc2)c2c1CCS(=O)(=O)C2` | -27.42% | 4.348% | -5.44% | 24.72% |

For reference, 6 entries once more:

| SMILES | A | B | C | D |
|---|---|---|---|---|
| `CN(Cc1cn2c(n1)CN(C(=O)CC1CC1)CC2)Cc1ccco1` | -32.74% | 4.918% | 0.7048% | 5.429% |
| `CCN(Cc1cnn(C)c1)C[C@H]1CC[C@@H](Cc2cccc(CN)c2)O1` | -7.024% | 2.762% | 3.406% | -10.02% |
| `CC(=O)N(Cc1noc(C2CC2)n1)C1CCN(Cc2nccn2C)C1` (stereo not given) | -20.53% | -1.149% | -1.846% | 16.67% |
| `O=C1C(Sc2nnnn2C2CC2)CCN1c1ccccc1Cl` (stereo not given) | -11.51% | 9.392% | -5.676% | 3.336% |
| `Cc1cccc(CN2CC3(CCN(Cc4ccco4)CC3)OCC2=O)n1` | -3.423% | -0.9346% | 1.18% | -10.6% |
| `CN(Cc1cccc(OC(F)(F)F)c1)C(=O)c1ccncc1F` | -20.36% | 0.5618% | -4.19% | -5.51% |